The values below come from paper doi:10.1101/2024.01.29.577840.

Chains of the proteins cited; added tags and fusions are not shown. Lines headed by an entry give the natural chain unless they say otherwise; changes in a name come on top. Residues count along the entry.
UniProt P40337, whole entry, looked up, stated change not applied: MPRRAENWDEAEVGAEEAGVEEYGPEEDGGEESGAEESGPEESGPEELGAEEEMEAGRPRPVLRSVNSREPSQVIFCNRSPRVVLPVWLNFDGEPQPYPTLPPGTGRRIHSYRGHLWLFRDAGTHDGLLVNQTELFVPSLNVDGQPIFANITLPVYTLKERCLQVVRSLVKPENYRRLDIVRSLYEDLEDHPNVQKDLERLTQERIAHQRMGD
UniProt P40337, 1-113: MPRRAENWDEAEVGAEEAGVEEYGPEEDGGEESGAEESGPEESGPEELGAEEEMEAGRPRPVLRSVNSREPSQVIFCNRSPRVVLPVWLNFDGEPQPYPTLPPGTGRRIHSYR
UniProt P40337, 114-154: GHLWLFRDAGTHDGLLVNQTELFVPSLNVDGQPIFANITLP
UniProt P40337, 155-189: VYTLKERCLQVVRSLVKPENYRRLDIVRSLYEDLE

These are yes or no findings as the source states them, for the method shown. Binding seen in cells or lysates may run through a third protein. Some binding calls cover weakened binding; strength is not graded here. Where a sequence is shown, tags or fusion partners need not be part of it.

Sequences and labels used below:
T1: 6Myc-FBXL5 (human) (UniProt Q9UKA1)
T1 sequence: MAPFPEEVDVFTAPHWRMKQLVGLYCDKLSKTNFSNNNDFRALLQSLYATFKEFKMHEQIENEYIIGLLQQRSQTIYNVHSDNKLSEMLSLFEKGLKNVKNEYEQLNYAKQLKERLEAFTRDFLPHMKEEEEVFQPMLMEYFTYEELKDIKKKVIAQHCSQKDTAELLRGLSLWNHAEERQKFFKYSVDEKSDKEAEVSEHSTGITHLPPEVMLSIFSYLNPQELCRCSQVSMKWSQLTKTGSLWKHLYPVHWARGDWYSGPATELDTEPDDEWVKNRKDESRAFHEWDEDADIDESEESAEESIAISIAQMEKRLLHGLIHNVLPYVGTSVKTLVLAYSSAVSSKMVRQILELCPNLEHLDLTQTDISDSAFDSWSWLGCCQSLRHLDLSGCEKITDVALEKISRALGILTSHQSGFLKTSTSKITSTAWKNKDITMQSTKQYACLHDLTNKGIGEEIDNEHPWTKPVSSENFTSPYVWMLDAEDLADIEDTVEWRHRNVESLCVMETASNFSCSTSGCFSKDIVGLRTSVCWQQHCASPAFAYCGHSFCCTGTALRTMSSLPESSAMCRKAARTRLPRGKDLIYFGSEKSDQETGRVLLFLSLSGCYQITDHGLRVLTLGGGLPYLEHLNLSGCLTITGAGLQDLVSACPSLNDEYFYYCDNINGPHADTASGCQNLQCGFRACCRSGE

T2: 3xHA-3xFLAG-FBXL5-4C>S (human) (UniProt Q9UKA1)
T2 sequence: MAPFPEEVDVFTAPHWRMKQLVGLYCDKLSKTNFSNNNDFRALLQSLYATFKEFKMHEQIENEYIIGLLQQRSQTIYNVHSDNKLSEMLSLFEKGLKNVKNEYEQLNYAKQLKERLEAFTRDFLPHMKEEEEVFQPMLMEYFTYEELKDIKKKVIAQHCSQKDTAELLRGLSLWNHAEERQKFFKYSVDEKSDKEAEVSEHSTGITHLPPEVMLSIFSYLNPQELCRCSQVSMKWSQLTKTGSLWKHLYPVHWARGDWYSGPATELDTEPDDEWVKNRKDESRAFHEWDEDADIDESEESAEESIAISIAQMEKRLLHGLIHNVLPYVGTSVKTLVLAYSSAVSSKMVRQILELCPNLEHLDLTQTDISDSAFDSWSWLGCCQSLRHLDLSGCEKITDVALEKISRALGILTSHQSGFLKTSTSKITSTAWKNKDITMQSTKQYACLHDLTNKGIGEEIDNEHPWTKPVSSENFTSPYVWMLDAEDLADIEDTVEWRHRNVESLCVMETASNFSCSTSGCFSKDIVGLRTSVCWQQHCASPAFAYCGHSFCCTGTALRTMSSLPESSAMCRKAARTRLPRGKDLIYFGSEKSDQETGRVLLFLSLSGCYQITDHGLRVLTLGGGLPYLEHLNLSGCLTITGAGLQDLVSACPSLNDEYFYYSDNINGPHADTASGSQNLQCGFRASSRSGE

T3: 3xHA-3xFLAG-FBXL5 (human) (UniProt Q9UKA1)
T3 sequence: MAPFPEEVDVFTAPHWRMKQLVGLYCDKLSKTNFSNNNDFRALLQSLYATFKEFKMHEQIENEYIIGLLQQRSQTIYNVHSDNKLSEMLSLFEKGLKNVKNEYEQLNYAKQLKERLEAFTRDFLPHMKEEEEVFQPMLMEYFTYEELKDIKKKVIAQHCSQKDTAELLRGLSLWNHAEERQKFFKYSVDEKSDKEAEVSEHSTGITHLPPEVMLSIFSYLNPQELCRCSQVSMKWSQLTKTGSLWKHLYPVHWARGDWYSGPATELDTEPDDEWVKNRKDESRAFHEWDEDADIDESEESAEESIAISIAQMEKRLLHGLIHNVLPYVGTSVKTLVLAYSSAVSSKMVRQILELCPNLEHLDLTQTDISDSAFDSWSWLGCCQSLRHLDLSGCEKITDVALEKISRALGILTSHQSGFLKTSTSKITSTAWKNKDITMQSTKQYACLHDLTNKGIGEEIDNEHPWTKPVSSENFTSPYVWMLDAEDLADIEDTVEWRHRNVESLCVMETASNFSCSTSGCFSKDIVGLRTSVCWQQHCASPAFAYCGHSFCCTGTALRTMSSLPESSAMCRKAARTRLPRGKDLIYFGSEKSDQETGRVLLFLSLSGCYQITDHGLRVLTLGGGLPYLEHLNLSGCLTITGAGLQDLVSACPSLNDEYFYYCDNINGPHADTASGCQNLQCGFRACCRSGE

B1: 6Myc-IRP2 (protein, UniProt P48200 1-963)
chain: MDAPKAGYAFEYLIETLNDSSHKKFFDVSKLGTKYDVLPYSIRVLLEAAVRNCDGFLMKKEDVMNILDWKTKQSNVEVPFFPARVLLQDFTGIPAMVDFAAMREAVKTLGGDPEKVHPACPTDLTVDHSLQIDFSKCAIQNAPNPGGGDLQKAGKLSPLKVQPKKLPCRGQTTCRGSCDSGELGRNSGTFSSQIENTPILCPFHLQPVPEPETVLKNQEVEFGRNRERLQFFKWSSRVFKNVAVIPPGTGMAHQINLEYLSRVVFEEKDLLFPDSVVGTDSHITMVNGLGILGWGVGGIETEAVMLGLPVSLTLPEVVGCELTGSSNPFVTSIDVVLGITKHLRQVGVAGKFVEFFGSGVSQLSIVDRTTIANMCPEYGAILSFFPVDNVTLKHLEHTGFSKAKLESMETYLKAVKLFRNDQNSSGEPEYSQVIQINLNSIVPSVSGPKRPQDRVAVTDMKSDFQACLNEKVGFKGFQIAAEKQKDIVSIHYEGSEYKLSHGSVVIAAVISCTNNCNPSVMLAAGLLAKKAVEAGLRVKPYIRTSLSPGSGMVTHYLSSSGVLPYLSKLGFEIVGYGCSICVGNTAPLSDAVLNAVKQGDLVTCGILSGNKNFEGRLCDCVRANYLASPPLVVAYAIAGTVNIDFQTEPLGTDPTGKNIYLHDIWPSREEVHRVEEEHVILSMFKALKDKIEMGNKRWNSLEAPDSVLFPWDLKSTYIRCPSFFDKLTKEPIALQAIENAHVLLYLGDSVTTDHISPAGSIARNSAAAKYLTNRGLTPREFNSYGARRGNDAVMTRGTFANIKLFNKFIGKPAPKTIHFPSGQTLDVFEAAELYQKEGIPLIILAGKKYGSGNSRDWAAKGPYLLGVKAVLAESYEKIHKDHLIGIGIAPLQFLPGENADSLGLSGRETFSLTFPEELSPGITLNIQTSTGKVFSVIASFEDDVEITLYKHGGLLNFVARKFS

The first assay has as its target T1, 6Myc-FBXL5 (human). Kind of assay: co-IP.
For “VHL with deletion of 98-154 amino acids (from UniProt P40337 1-213)”, the binding entry was “binds”. Still for that read-out and setting: with “YFP-VHL-172 (from UniProt P40337-2 1-172)” the entry was “binds”; with “pVHL172 with deletion of the ElonginBC binding box (157-172 amino acids) (from UniProt P40337 1-213)”, “binds”; with “pVHL213 with deletion of the ElonginBC binding box (157-172 amino acids) (from UniProt P40337 1-213)”, “binds”.

The target of another assay is T2, 3xHA-3xFLAG-FBXL5-4C>S (human). The experiment in a line: co-IP.
Turning to B1, the binding entry is “no binding”.

The next assay concerns the target T3, 3xHA-3xFLAG-FBXL5 (human). Kind of assay: co-IP.
With “YFP-VHL-Δ98-170 (from UniProt P40337 1-213)”, the binding result is reported as “no binding”.

A further assay has as its target T1, 6Myc-FBXL5 (human). The experiment in a line: co-IP. The source holds these as a separate data set.
For “YFP-VHL-1-113 (from UniProt P40337 1-113) (domain or fragment)”, the binding entry is reported as “no binding”. Still for that read-out and setting: with “YFP-VHL-114-154 (from UniProt P40337 114-154) (domain or fragment)” the entry was “binds”. The same measure, in the same setting: with “YFP-VHL-155-189 (from UniProt P40337 155-189) (domain or fragment)” the entry was “binds”; with “YFP-VHL-172 (from UniProt P40337-2 1-172)”, “binds”; with “YFP-VHL-Δ114-162 (from UniProt P40337 1-213)”, “binds”.

With “YFP-VHL-Δ114-170 (from UniProt P40337 1-213)”, the binding result is “no binding”. The same measure, in the same setting: the result for “YFP-VHL-Δ134-170 (from UniProt P40337 1-213)” reads “binds”.
